Laboratory results: US10081662B2, “Modified relaxin B chain peptides” (The Florey Institute of Neuroscience and Mental Health, priority 2014, dated 2018)
At least one structure is not confirmed: it was looked up by name or label, or the drawing left a doubt. Bridge positions count the residues as written; N and C are the ends. Peptide text beside a SMILES is read from it.

Columns and labels:
RXFP1 [1] = molecular target: T1, RXFP1 (Homo sapiens, UniProt Q9HBX9); test: Eu-labelled H2 relaxin competition binding, whole HEK-293T cells stably transfected with RXFP1; conditions: mean ± S.E, n ≥ 3
T1 construct: expressed in transfected cells; host or cells: HEK-293T
T1 sequence (Q9HBX9 1-757): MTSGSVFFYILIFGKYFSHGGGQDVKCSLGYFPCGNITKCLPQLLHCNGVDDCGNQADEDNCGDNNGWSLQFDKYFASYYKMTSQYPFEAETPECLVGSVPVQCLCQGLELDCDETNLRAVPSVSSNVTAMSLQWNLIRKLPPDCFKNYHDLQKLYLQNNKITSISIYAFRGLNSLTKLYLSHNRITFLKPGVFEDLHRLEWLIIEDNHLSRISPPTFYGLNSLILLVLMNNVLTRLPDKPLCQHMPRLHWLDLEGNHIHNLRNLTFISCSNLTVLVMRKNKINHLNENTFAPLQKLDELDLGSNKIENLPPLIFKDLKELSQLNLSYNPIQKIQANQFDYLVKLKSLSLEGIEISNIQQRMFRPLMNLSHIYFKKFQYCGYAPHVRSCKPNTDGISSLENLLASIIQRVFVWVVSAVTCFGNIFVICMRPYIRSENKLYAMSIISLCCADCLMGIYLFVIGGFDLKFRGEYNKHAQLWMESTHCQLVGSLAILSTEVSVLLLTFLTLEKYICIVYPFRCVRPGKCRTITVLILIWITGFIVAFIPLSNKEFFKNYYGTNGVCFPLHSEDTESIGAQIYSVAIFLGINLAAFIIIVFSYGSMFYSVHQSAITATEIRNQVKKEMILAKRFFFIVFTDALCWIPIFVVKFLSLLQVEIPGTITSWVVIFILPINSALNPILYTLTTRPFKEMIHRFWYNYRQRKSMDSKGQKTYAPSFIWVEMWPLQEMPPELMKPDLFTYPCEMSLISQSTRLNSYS
Method: Human embryonic kidney (HEK-293T) cells stably transfected with RXFP1 were cultured in RPMI 1640 medium supplemented with 10% fetal calf serum, 100 μg/ml penicillin, 100 μg/ml streptomycin and 2 mM L-glutamine and plated into 96-well pre-coated with poly-L-lysine for whole cell binding assays. Competition binding experiments were conducted with Eu^3+-labelled H2 relaxin (as per Shabanpoor et al., 2012, Biochem Biophys Res Commun. 420, 253-256) in the absence or presence of increasing concentrations of unlabelled relaxin-2 B chain derivatives. Nonspecific binding was determined with an excess of unlabelled peptides (500 nM H2 relaxin). Fluorescent measurements were recorded at an excitation wavelength of 340 nm and emission of 614 nm on a Victor plate reader (Perkin-Elmer Inc.). […] Statistical differences in pIC50 values were analyzed using one-way analysis of variance coupled to Newman Keul's multiple comparison test for multiple group comparisons in GraphPad Prism 6.

RXFP1 [2] = molecular target: T1, RXFP1; test: cAMP reporter gene assay (pCRE β-galactosidase) in HEK-293T cells transfected with RXFP1; format: cell-based; conditions: HEK-293T cells co-transfected with RXFP1 and pCRE β-galactosidase reporter; n ≥ 3
Method: The ability of the relaxin-2 B chain peptide derivatives generated in Example 1 to stimulate cAMP response was also evaluated, using a cAMP reporter gene assay as described previously (Scott et al., 2006, J Biol Chem. 281, 34942-34954). HEK-293T cells co-transfected with either RXFP1 or RXFP2, or 7BP cells, and a pCRE β-galactosidase reporter plasmid were plated in 96-well plates. After 24 hours, the co-transfected cells were incubated with increasing concentrations of peptides in parallel to 10 nM of H2 relaxin or INSL3 for RXFP1- or RXFP2-transfected cells respectively. The amount of cAMP-driven β-galactosidase expression in each well was assessed with a colorimetric assay measuring absorbance at 570 nm on a microplate spectrophotometer. Ligand-induced cAMP stimulation was expressed as a percentage of maximal response of H2 relaxin or INSL3 for RXFP1 and RXFP2 cells respectively. Each data point was measured in triplicate and each experiment conducted independently at least three separate times. Statistical differences in pEC50 values were analyzed using one-way ANOVA coupled to Newman Keul's multiple comparison test for multiple group comparisons in GraphPad Prism 6.

SMILES | RXFP1 Eu-H2 pKi (RXFP1 [1]) | RXFP1 cAMP pEC50 (RXFP1 [2])
CC[C@H](C)[C@H](NC(=O)[C@H](C)NC(=O)[C@@H](NC(=O)[C@H](CCC(N)=O)NC(=O)[C@H](C)NC(=O)[C@H](CCCNC(=N)N)NC(=O)[C@@H](NC(=O)[C@H](CC(C)C)NC(=O)[C@H](CCC(=O)O)NC(=O)[C@H](CCCNC(=N)N)NC(=O)CNC(=O)[C@H](CO)NC(=O)[C@H](CC(C)C)NC(=O)[C@H](CCCCN)NC(=O)[C@@H](NC(=O)[C@@H](NC(=O)[C@H](CCC(=O)O)NC(=O)[C@H](CCC(=O)O)NC(=O)[C@H](CCSC)NC(=O)[C@H](Cc1c[nH]c2ccccc12)NC(=O)[C@H](CO)NC(=O)[C@@H](N)CC(=O)O)C(C)C)[C@@H](C)CC)C(C)C)[C@@H](C)CC)C(=O)N[C@@H](CO)C(=O)NCC(=O)N[C@@H](CCSC)C(=O)N[C@@H](CO)C(=O)N[C@H](C(=O)N[C@@H](Cc1c[nH]c2ccccc12)C(=O)N[C@@H](CO)C(N)=O)[C@@H](C)O [B1-29 C11.23S] | <5 log M | <5 log M
CC[C@H](C)[C@@H]1NC(=O)[C@H](C)NC(=O)[C@H]([C@@H](C)CC)NC(=O)[C@H](CCC(N)=O)NC(=O)[C@H](C)NC(=O)[C@H](CCCNC(=N)N)NC(=O)[C@H](C(C)C)NC(=O)[C@H](CC(C)C)NC(=O)[C@H](CCC(=O)O)NC(=O)[C@H](CCCNC(=N)N)NC(=O)CNC(=O)[C@@H](NC(=O)[C@H](CC(C)C)NC(=O)[C@H](CCCCN)NC(=O)[C@@H](NC(=O)[C@@H](N)C(C)C)[C@@H](C)CC)CSSC[C@@H](C(=O)NCC(=O)N[C@@H](CCSC)C(=O)N[C@@H](CO)C(=O)N[C@H](C(=O)N[C@@H](Cc2c[nH]c3ccccc23)C(=O)N[C@@H](CO)C(=O)N[C@@H](CCCCN)C(=O)N[C@@H](CCCNC(=N)N)C(=O)N[C@@H](CO)C(=O)N[C@@H](CC(C)C)C(N)=O)[C@@H](C)O)NC1=O [Peptide B7-33ox] (H-VIKLCGRELVRAQIAICGMSTWSKRSL-NH2; disulfide 5-17) | 6.15 ± 0.15 log M | 5.11 ± 0.11 log M
CC[C@H](C)[C@@H]1NC(=O)[C@H](C)NC(=O)[C@H]([C@@H](C)CC)NC(=O)[C@H](CCC(N)=O)NC(=O)[C@H](C)NC(=O)[C@H](CCCNC(=N)N)NC(=O)[C@H](C(C)C)NC(=O)[C@H](CC(C)C)NC(=O)[C@H](CCC(=O)O)NC(=O)[C@H](CCCNC(=N)N)NC(=O)CNC(=O)[C@@H](NC(=O)[C@H](CC(C)C)NC(=O)[C@H](CCCCN)NC(=O)[C@@H](NC(=O)[C@@H](NC(=O)[C@H](CCC(=O)O)NC(=O)[C@H](CCC(=O)O)NC(=O)[C@H](CCSC)NC(=O)[C@H](Cc2c[nH]c3ccccc23)NC(=O)[C@H](CO)NC(=O)[C@@H](N)CC(=O)O)C(C)C)[C@@H](C)CC)CSSC[C@@H](C(=O)NCC(=O)N[C@@H](CCSC)C(=O)N[C@@H](CO)C(=O)N[C@H](C(=O)N[C@@H](Cc2c[nH]c3ccccc23)C(=O)N[C@@H](CO)C(=O)N[C@@H](CCCCN)C(=O)N[C@@H](CCCNC(=N)N)C(=O)N[C@@H](CO)C(=O)N[C@@H](CC(C)C)C(N)=O)[C@@H](C)O)NC1=O [Peptide B1-33ox] (H-DSWMEEVIKLCGRELVRAQIAICGMSTWSKRSL-NH2; disulfide 11-23) | 6.61 ± 0.24 log M | <5 log M
